The values that follow come from patent publication CN113336847A.

By UniProt entry, the sequences of proteins in these tests, tags left out. Residues count along the entry.
UniProt Q15116, residues 25-288: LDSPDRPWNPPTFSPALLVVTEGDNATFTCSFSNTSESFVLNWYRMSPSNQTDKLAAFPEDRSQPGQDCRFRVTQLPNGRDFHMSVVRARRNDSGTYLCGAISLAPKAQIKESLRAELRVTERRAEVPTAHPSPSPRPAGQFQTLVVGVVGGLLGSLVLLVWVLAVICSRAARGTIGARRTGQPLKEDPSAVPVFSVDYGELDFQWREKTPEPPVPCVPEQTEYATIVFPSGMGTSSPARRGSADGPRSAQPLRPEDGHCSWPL

For the assay, the target named is PD-1 expressed on CHO cells (CHO-PD-1) (human) (UniProt Q15116). Description: flow cytometry, 293T transfection supernatant on CHO-PD-1 cells, goat anti-mouse IgG Fc-FITC.

Results are given in words; binding and its absence hold for the method and conditions named. Some binding calls cover weakened binding; strength is not graded here.

B1: PD1-05-4D5-1A9重组抗体 (secreted into 293T supernatant) (antibody, V domains shown)
VH: EVNLVESGGGLVKPGGSLKLSCAASGFTFSSYGMSWVRQTPEKRLEWVATISGGGSNIYYPDSVKGRFTISRDNAQNNLYLQMSSLRSEDTAFYFCARQRDVDWFAYWGQGTLVTVSA
VL: DILLTQSPATLSVTPGDSVSLSCRASQSISNNLHWYQQKSHESPRLLIKYASQSISGIPSRFSGSGSGTDFTLSINTVETEDFGMYFCQQTNSWPLTFGAGTKLELK
On to B1, for which the binding entry is recorded as “binds”.
